Data as given in the supplement of paper PMC12819154, “High-throughput peptide-centric local stability assay extends protein–ligand identification to membrane proteins, tissues and bacteria” (Nature Structural & Molecular Biology, 2025).
This is one part of the list. Small differences around the control level are noise.

Chains of the proteins cited; added tags and fusions are not shown. Lines headed by an entry give the natural chain unless they say otherwise; changes in a name come on top.
UniProt P62820, whole entry: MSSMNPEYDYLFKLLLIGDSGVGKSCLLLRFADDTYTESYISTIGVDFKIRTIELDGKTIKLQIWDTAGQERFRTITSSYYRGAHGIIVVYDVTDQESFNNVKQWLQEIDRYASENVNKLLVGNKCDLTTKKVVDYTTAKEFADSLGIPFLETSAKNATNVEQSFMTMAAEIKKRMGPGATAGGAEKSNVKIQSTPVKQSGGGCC
UniProt P78317: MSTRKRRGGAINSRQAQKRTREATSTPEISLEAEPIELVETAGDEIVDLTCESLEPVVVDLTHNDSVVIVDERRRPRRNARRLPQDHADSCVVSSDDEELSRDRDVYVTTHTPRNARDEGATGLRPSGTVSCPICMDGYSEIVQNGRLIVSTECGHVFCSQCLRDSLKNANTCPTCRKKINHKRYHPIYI
UniProt P61966: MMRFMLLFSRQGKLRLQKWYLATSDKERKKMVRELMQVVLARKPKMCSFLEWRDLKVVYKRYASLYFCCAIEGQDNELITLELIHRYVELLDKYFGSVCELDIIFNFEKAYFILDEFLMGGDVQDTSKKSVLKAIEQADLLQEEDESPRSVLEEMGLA
UniProt P61009: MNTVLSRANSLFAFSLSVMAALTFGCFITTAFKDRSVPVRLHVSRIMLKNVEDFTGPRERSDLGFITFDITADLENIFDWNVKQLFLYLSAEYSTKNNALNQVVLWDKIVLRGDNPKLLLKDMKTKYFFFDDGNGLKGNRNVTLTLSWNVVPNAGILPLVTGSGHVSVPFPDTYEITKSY
UniProt P61020: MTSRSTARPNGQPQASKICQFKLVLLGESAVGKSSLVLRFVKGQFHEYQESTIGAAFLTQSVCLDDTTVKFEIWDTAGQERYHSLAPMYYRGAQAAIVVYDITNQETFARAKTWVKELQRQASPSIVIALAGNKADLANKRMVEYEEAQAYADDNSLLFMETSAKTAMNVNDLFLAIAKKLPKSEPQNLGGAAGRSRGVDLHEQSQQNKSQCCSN
UniProt P57082: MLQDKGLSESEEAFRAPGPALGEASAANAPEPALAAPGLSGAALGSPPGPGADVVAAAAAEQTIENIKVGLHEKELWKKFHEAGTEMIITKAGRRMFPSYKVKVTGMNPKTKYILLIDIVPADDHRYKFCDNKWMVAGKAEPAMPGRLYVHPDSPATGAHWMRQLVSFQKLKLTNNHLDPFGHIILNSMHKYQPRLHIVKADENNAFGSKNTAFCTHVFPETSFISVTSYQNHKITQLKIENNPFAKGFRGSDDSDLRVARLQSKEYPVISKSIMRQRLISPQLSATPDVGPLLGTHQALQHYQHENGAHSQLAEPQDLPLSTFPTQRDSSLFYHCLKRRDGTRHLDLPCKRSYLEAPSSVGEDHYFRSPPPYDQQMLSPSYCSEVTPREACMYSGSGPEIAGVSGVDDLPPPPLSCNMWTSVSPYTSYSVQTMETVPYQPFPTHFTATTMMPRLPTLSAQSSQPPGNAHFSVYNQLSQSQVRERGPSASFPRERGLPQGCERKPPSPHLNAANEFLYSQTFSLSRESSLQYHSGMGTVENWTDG
UniProt P62879, whole entry: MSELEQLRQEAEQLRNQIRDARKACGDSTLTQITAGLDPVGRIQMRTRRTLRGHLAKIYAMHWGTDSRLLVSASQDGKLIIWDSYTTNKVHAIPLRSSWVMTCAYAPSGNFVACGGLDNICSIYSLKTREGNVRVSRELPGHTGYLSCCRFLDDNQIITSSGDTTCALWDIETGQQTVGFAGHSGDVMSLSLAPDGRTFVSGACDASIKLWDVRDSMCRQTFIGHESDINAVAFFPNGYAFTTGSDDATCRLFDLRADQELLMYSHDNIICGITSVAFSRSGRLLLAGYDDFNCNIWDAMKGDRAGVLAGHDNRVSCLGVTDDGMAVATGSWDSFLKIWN
UniProt P61604, whole entry: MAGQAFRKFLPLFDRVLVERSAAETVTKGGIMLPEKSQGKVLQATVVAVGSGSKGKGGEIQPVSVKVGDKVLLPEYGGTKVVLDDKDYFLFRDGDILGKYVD
UniProt P55795: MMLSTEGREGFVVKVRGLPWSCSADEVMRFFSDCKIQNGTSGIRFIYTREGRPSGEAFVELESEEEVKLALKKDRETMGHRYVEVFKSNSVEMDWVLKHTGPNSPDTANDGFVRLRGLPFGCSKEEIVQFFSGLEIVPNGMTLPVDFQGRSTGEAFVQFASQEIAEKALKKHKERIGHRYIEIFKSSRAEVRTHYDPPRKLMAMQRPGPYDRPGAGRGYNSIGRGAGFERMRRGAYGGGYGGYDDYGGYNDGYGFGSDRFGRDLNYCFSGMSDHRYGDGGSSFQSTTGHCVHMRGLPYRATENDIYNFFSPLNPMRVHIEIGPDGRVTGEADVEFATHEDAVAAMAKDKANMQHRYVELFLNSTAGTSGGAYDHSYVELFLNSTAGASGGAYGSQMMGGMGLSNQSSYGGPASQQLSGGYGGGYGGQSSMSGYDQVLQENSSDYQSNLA
UniProt P61006: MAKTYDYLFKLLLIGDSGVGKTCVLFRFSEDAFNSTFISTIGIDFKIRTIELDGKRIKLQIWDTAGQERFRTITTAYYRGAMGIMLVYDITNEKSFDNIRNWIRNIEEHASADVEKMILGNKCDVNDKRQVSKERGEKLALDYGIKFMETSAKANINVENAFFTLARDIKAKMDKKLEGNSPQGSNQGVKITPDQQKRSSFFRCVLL
UniProt P78332: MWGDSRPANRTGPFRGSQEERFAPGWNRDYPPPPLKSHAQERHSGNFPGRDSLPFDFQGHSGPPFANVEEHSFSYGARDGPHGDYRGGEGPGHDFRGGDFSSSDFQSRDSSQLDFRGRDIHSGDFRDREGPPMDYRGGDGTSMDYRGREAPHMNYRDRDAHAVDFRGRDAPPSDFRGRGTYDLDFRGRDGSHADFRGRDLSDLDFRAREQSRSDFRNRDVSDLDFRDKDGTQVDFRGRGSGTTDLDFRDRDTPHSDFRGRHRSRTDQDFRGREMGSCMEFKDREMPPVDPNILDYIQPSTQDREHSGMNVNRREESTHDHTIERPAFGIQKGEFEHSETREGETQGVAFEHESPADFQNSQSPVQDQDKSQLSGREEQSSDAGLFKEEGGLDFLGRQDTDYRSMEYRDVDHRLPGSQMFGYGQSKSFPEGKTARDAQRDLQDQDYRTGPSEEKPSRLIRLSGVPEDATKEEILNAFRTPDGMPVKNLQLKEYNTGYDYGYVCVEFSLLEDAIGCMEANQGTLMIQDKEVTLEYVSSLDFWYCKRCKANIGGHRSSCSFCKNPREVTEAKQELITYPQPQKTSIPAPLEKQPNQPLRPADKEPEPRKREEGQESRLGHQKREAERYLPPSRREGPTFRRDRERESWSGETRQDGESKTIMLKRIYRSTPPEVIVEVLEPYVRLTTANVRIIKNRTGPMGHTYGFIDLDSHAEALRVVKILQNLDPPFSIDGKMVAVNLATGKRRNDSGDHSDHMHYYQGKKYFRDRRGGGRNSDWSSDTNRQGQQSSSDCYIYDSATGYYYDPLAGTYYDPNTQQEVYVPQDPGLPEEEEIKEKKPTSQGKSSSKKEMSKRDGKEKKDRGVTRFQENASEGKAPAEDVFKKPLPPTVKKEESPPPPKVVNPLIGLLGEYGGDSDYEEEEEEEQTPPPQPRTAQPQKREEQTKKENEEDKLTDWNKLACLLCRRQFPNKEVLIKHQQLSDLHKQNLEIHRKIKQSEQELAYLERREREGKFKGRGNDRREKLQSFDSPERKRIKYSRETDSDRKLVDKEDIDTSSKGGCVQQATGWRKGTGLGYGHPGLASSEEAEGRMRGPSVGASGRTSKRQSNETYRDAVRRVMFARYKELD
UniProt P55145: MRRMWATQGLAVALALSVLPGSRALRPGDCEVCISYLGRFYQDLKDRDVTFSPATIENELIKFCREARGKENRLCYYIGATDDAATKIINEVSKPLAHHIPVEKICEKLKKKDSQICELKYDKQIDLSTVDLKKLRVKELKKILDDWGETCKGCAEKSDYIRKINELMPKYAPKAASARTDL
UniProt P56377: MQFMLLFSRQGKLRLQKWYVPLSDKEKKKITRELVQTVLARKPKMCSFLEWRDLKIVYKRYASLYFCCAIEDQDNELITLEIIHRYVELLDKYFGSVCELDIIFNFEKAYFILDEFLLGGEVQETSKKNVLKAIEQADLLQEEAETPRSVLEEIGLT
UniProt P62328: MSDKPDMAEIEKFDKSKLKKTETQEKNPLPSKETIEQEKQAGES
UniProt P62877, whole entry, looked up: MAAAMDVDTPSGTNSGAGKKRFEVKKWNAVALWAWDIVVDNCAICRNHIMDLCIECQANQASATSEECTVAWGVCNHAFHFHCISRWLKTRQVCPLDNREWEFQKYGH
UniProt P55789: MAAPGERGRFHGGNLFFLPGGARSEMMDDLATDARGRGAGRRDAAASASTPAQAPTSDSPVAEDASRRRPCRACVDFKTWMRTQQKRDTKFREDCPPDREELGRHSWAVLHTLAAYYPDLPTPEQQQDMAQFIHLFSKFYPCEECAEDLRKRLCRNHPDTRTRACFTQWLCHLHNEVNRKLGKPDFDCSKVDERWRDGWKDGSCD
UniProt P61962: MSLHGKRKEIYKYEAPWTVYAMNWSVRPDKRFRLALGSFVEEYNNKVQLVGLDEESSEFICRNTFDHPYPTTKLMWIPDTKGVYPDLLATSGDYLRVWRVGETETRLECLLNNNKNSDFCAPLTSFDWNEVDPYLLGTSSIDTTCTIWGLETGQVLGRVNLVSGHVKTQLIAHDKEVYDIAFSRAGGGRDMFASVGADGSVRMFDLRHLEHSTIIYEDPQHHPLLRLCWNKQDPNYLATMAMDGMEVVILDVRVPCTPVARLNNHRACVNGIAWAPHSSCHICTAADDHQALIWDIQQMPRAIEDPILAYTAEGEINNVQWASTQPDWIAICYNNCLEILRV
UniProt P61981: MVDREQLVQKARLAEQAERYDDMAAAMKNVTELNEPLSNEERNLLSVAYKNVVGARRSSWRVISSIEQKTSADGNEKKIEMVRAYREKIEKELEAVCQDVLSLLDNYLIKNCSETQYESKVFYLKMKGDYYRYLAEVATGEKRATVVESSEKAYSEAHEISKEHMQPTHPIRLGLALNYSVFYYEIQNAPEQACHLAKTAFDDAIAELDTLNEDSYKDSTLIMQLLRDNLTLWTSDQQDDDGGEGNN
UniProt P57737: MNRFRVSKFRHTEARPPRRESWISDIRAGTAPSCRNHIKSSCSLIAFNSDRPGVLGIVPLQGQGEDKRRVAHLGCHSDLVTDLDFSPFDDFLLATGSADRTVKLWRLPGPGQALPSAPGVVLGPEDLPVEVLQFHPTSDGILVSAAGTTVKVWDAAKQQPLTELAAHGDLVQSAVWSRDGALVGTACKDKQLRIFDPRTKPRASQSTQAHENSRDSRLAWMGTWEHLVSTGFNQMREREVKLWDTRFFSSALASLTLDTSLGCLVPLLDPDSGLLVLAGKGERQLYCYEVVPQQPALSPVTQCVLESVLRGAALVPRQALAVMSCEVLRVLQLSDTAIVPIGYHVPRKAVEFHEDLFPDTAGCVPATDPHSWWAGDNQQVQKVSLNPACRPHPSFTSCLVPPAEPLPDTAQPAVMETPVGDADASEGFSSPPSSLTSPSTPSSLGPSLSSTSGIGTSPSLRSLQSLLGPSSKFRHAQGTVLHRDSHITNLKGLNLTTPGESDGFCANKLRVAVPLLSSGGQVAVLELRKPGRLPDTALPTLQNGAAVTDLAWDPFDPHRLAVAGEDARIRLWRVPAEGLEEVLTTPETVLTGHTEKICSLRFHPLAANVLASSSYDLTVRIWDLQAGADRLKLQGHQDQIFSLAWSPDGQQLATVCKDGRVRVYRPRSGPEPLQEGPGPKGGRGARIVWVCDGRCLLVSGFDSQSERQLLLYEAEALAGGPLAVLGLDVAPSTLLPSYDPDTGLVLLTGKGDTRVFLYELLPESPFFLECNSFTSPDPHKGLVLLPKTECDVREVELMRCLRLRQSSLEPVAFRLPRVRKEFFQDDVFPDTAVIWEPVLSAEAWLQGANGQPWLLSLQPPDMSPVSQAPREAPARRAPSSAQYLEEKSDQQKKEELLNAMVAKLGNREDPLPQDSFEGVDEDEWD
UniProt P55347: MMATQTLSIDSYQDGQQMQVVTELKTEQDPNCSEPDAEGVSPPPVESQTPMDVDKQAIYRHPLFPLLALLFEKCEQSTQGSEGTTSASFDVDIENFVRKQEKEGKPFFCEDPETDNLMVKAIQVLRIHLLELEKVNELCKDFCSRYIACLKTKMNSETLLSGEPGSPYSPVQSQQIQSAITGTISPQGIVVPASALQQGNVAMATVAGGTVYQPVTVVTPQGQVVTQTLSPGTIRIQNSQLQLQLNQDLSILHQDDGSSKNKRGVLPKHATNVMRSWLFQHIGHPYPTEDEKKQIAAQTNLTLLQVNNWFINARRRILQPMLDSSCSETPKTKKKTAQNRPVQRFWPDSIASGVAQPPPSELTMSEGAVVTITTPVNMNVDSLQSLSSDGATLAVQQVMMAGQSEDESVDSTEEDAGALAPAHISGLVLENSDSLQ

These targets were tested with Cc1nc(Nc2ncc(C(=O)Nc3c(C)cccc3Cl)s2)cc(N2CCN(CCO)CC2)n1 [dasatinib] (assay: log2 fold change of tryptic peptide abundance, ligand vs vehicle (limited proteolysis) (log2 ratio); higher = more trypsin-susceptible (destabilized)). Details: ligand concentration: 5 uM; sample: K562 cleared lysate.

Target	log2 fold change
RPL38 (peptide sequence: CSRYLYTLVITDKEK, peptide start residue: 38) (UniProt P63173)	0.172
UniProt P62820 (peptide sequence: MGPGATAGGAEK, peptide start residue: 176)	0.127
RNF4 (peptide sequence: LIVSTECGHVFCSQCLRDSLK, peptide start residue: 148) (UniProt P78317)	-0.802
UniProt P61966 (peptide sequence: ELMQVVLAR, peptide start residue: 34)	-0.152
UniProt P62750 (peptide sequence: VNTLIRPDGEKK, peptide start residue: 124)	-0.0583
UniProt P61009 (peptide sequence: NVEDFTGPR, peptide start residue: 50)	0.142
UniProt P61927 (peptide sequence: RAAVAASSSS, peptide start residue: 88)	0.0347
UniProt P61020 (peptide sequence: SRGVDLHEQSQQNK, peptide start residue: 196)	0.117
UniProt P55201 (peptide sequence: GLGPNMSSTPAHEVGRR, peptide start residue: 873)	0.446
UniProt P57082 (peptide sequence: AGRRMFPSYK, peptide start residue: 92)	-0.0915
UniProt P62879 (peptide sequence: TFVSGACDASIK, peptide start residue: 198)	0.0869
ELOF1 (peptide sequence: SCDVKMDR, peptide start residue: 34) (UniProt P60002)	-0.548
HSPE1 (peptide sequence: FLPLFDR, peptide start residue: 9) (UniProt P61604)	-0.133
HNRNPH2 (peptide sequence: YGDGGSSFQSTTGHCVHMR, peptide start residue: 276) (UniProt P55795)	-0.039
RAB8A (peptide sequence: LALDYGIK, peptide start residue: 139) (UniProt P61006)	-0.0982
RBM6 (peptide sequence: APAEDVFK, peptide start residue: 872) (UniProt P78332)	0.134
UniProt P55145 (peptide sequence: QIDLSTVDLK, peptide start residue: 124)	0.213
UniProt P62273 (peptide sequence: YGLNMCR, peptide start residue: 34)	0.0553
AP1S2 (peptide sequence: ELVQTVLAR, peptide start residue: 33) (UniProt P56377)	-0.372
TMSB4X (peptide sequence: TETQEKNPLPSKETIEQEK, peptide start residue: 21) (UniProt P62328)	0.0568
UniProt P61353 (peptide sequence: YSVDIPLDKTVVNK, peptide start residue: 85)	-0.08
UniProt P62877 (peptide sequence: QVCPLDNREWEFQK, peptide start residue: 92)	-0.419
GFER (peptide sequence: LGKPDFDCSKVDER, peptide start residue: 181) (UniProt P55789)	-0.587
GTF2I (peptide sequence: EDLQLDKPASGVK, peptide start residue: 444) (UniProt P78347)	0.192
UniProt P61962 (peptide sequence: TQLIAHDKEVYDIAFSR, peptide start residue: 168)	-0.181
UniProt P61981 (peptide sequence: NCSETQYESK, peptide start residue: 111)	0.0877
CORO7 (peptide sequence: IVWVCDGR, peptide start residue: 687) (UniProt P57737)	-0.285
NUCB2 (peptide sequence: KKHENHPK, peptide start residue: 212) (UniProt P80303)	-0.757
PKNOX1 (peptide sequence: IHLLELEKVNELCK, peptide start residue: 127) (UniProt P55347)	0.298

Quoted from above for reference:
Target	log2 fold change
UniProt P57082 (peptide sequence: AGRRMFPSYK, peptide start residue: 92)	-0.0915
UniProt P62879 (peptide sequence: TFVSGACDASIK, peptide start residue: 198)	0.0869
